Laboratory results from the supplement of paper PMC10849652.
Some of the results follow.

The chains behind the UniProt entries cited, without tags or fusion partners. Where a name states a change or a piece, a line headed by the entry shows the natural chain unless it says otherwise.
UniProt Q86VG3: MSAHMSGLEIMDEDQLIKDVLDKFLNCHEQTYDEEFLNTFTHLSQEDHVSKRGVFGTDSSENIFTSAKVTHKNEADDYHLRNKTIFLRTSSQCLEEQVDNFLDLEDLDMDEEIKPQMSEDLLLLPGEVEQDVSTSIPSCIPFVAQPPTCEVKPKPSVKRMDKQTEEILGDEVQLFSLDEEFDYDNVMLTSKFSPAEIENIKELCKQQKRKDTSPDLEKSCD
UniProt Q6PH81: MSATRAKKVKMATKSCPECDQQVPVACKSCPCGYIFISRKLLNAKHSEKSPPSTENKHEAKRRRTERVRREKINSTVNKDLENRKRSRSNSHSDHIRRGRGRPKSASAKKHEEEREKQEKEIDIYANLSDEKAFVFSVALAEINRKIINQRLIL
UniProt P0DMB2: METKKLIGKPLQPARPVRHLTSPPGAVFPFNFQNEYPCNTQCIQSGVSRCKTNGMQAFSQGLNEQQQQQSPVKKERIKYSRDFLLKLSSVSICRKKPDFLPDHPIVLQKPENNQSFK
UniProt Q7Z4R8: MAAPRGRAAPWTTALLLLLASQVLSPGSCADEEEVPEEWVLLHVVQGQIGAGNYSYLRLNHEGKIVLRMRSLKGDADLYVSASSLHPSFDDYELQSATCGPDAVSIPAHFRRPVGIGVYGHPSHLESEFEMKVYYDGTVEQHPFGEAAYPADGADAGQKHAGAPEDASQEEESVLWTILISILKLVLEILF
UniProt Q9Y297: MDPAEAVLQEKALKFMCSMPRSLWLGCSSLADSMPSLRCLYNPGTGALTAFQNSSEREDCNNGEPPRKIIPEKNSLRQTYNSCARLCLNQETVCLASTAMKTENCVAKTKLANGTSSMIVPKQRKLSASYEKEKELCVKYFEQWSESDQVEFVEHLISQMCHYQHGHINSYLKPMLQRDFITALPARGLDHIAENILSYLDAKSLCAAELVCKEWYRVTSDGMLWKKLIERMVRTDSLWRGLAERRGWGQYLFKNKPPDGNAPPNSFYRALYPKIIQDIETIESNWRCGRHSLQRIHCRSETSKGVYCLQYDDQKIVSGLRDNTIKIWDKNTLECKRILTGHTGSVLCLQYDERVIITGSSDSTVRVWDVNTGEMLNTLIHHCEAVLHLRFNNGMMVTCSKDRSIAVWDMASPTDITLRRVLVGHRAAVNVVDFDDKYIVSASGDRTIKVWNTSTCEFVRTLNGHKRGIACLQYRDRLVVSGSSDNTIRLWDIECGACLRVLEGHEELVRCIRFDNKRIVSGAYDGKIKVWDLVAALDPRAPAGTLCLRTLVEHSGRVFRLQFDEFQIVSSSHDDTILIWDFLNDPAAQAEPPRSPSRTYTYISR
UniProt Q9Y2G2: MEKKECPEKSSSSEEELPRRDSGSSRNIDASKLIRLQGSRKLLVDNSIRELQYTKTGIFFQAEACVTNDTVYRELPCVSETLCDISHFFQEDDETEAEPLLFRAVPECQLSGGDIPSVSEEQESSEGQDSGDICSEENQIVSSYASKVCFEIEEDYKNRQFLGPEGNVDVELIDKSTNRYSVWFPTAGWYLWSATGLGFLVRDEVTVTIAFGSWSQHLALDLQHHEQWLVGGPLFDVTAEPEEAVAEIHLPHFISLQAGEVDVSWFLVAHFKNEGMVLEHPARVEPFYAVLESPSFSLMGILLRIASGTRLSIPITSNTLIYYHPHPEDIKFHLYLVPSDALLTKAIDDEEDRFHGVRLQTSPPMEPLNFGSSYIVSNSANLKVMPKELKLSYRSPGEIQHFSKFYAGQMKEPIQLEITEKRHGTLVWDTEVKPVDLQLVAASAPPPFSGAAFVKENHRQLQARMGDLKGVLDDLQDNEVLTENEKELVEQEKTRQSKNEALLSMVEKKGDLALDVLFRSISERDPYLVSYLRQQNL
UniProt Q9P1Z2: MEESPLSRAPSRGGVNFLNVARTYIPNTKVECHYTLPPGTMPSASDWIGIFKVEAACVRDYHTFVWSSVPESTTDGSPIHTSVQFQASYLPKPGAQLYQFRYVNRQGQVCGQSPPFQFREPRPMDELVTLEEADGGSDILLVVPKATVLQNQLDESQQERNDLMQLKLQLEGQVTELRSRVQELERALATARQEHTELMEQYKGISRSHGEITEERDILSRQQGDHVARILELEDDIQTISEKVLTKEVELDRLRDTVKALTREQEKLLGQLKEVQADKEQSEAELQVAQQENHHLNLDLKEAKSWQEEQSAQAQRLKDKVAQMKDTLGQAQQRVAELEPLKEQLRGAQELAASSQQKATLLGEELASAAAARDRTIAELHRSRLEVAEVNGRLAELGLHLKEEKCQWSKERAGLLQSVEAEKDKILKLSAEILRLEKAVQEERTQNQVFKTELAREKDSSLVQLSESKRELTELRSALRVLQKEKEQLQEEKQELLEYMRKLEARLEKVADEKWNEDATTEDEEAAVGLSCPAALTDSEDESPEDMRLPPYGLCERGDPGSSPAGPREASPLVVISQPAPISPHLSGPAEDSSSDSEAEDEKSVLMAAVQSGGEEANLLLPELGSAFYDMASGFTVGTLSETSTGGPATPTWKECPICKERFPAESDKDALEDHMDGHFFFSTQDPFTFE
UniProt Q9NSG2: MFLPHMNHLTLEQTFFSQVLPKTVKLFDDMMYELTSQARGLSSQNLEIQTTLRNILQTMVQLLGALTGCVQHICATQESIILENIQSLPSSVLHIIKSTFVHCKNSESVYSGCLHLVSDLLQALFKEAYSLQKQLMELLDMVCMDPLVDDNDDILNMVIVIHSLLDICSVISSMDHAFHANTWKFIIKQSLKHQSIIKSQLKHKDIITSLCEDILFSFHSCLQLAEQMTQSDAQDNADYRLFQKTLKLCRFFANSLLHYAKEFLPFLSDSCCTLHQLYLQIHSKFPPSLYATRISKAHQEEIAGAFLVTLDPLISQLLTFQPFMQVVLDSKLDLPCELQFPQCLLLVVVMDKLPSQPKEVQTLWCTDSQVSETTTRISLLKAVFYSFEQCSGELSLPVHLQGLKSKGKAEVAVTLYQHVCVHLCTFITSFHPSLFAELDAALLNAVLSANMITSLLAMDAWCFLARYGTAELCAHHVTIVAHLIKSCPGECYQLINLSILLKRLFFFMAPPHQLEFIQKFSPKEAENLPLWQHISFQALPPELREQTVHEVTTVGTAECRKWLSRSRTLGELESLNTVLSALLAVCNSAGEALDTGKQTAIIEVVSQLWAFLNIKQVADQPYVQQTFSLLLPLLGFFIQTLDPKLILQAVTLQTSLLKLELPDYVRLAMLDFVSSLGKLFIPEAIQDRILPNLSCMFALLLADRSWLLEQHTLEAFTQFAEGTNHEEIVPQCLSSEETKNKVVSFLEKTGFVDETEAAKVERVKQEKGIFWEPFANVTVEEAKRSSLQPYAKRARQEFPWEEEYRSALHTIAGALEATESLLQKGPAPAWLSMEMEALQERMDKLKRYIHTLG
UniProt Q96KE9: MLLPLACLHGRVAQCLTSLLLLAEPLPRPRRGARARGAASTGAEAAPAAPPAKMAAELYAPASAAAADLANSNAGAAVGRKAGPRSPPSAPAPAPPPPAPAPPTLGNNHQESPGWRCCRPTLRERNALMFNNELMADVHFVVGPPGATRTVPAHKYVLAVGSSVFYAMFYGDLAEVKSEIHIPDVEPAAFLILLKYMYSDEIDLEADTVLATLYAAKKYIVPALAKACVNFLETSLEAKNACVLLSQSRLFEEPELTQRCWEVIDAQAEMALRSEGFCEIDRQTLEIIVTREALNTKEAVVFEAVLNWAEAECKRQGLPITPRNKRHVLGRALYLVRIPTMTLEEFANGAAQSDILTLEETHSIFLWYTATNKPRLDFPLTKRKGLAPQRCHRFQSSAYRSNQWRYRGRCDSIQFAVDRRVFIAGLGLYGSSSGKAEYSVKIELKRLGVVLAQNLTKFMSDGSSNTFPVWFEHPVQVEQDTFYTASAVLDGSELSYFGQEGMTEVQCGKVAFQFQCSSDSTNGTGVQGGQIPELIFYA
UniProt Q96HA4: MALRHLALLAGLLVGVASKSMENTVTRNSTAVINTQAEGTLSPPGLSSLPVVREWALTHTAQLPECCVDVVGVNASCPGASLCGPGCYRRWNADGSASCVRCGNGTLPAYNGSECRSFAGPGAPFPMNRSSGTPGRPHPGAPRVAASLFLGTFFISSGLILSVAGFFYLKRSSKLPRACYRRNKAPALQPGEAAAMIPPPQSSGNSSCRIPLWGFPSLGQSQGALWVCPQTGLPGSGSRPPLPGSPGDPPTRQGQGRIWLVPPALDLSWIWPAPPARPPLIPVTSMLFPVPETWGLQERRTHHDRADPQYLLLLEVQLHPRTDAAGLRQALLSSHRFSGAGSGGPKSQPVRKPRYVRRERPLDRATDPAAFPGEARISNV
UniProt Q9H9S4: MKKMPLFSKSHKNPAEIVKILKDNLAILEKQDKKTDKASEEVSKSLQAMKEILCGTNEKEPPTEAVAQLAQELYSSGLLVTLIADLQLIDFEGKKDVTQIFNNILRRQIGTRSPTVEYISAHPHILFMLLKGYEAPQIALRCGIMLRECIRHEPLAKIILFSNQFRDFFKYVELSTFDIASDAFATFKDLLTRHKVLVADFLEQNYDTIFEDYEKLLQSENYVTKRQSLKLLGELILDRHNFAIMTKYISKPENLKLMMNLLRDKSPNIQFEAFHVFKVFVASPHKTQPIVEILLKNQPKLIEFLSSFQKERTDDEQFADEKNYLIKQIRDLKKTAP
UniProt Q01518, whole entry, looked up: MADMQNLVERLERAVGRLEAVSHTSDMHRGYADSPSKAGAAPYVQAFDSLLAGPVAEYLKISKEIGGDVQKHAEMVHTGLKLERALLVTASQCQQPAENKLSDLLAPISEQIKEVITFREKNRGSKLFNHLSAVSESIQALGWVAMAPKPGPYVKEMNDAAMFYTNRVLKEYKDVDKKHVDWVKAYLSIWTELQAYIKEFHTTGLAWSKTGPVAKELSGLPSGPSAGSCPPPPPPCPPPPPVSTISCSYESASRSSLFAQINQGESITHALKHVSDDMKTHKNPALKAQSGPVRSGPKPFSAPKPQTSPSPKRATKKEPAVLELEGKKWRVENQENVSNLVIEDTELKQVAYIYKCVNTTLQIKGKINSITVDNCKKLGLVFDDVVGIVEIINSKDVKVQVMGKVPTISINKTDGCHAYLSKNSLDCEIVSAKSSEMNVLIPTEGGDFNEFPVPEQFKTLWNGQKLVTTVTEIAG
UniProt Q96LW7: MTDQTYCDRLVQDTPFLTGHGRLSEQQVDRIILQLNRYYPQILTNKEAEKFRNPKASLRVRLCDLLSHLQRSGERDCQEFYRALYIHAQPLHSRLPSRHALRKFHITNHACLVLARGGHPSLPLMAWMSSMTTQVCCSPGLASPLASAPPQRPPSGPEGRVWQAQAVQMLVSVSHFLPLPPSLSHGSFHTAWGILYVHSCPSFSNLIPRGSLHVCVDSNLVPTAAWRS
UniProt Q0VDD7: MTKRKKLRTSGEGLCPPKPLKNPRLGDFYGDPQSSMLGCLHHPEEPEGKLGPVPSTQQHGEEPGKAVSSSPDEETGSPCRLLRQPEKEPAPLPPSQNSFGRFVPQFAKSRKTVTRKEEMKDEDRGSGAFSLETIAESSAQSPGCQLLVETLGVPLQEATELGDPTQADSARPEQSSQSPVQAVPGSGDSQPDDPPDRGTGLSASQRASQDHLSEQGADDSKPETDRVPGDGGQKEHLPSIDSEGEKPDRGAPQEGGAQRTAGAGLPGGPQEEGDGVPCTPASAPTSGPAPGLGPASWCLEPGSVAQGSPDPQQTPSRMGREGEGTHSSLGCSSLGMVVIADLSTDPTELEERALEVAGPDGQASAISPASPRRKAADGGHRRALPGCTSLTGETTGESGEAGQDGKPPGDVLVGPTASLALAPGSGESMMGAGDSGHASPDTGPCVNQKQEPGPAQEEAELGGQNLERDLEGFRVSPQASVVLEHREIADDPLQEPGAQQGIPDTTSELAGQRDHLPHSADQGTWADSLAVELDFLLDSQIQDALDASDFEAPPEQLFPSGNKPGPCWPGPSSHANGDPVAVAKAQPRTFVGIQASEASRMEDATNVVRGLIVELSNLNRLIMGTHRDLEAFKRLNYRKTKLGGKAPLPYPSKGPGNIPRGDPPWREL
UniProt Q9H257: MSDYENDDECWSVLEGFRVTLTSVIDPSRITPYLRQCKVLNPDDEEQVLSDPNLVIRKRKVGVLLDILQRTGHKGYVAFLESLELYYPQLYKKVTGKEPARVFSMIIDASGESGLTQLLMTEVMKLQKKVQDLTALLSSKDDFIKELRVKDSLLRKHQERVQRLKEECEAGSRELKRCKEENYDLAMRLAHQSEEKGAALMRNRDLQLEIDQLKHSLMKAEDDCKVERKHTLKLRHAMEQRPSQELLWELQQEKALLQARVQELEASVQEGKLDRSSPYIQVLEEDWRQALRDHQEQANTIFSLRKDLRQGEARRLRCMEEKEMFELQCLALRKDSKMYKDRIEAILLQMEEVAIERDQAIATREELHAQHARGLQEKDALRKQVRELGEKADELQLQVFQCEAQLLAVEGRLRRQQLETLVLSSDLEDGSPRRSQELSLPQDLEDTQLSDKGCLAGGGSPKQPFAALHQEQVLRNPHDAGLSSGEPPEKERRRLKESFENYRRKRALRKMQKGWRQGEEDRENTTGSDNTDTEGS

Legend:
Experiment in all cases: log2 fold change, soluble protein after heating vs DMSO (PISA); higher = thermal stabilisation; K562 cells, 10 uM, 30 min; active = over 0.2 and 3.5 SD of the protein, either way, in both replicates (recomputed)
[1] = compound: COC1=CC=C(C=C1)CN2C=CC3=C2C=C(C=C3)C(=O)NO
Procedure, shortened: (§1)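 For each measurement, 10 μM compound was applied for 30 min to K562 cells at 2×10^6 cells/mL. Aliquots were heated for 3 min across 48°C-58°C, pooled, and extracted in PBS with 0.5% NP-40 at 4°C; the supernatant after 21,000xg for 90 min was soluble protein. This was quantified by TMTpro 16plex LC-MS/MS with channel sums equalised, and thermal stability was reported relative to control samples from duplicates, on a log2 fold-change scale.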

filanesib = compound: CON(C)C(=O)N1N=C(c2cc(F)ccc2F)S[C@@]1(CCCN)c1ccccc1 [filanesib]
Procedure, shortened: as §1

zotarolimus = compound: CO[C@H]1C[C@@H]2CC[C@@H](C)[C@@](O)(O2)C(=O)C(=O)N2CCCC[C@H]2C(=O)O[C@H]([C@H](C)C[C@@H]2CC[C@H](n3cnnn3)[C@H](OC)C2)CC(=O)[C@H](C)/C=C(\C)[C@@H](O)[C@@H](OC)C(=O)[C@H](C)C[C@H](C)/C=C/C=C/C=C/1C [zotarolimus]
Procedure, shortened: as §1

idasanutlin = compound: COc1cc(C(=O)O)ccc1NC(=O)[C@@H]1N[C@@H](CC(C)(C)C)[C@](C#N)(c2ccc(Cl)cc2F)[C@H]1c1cccc(Cl)c1F [idasanutlin]
Procedure, shortened: as §1

alisertib = compound: COc1cc(Nc2ncc3c(n2)-c2ccc(Cl)cc2C(c2c(F)cccc2OC)=NC3)ccc1C(=O)O [alisertib]
Procedure, shortened: as §1

[2] = compound: COc1cc2nc(-c3cc(F)ccc3O)nc(N[C@@H]3CNC[C@H]3C(C)(C)O)c2cc1OC
Procedure, shortened: as §1

gefitinib = compound: COc1cc2ncnc(Nc3ccc(F)c(Cl)c3)c2cc1OCCCN1CCOCC1 [gefitinib]
Procedure, shortened: as §1

[3] = compound: COc1cccc2cc(-c3nc([C@H]4CC[C@H](C(=O)O)CC4)n4ncnc(N)c34)[nH]c12
Procedure, shortened: as §1

lapatinib = compound: CS(=O)(=O)CCNCc1ccc(-c2ccc3ncnc(Nc4ccc(OCc5cccc(F)c5)c(Cl)c4)c3c2)o1 [lapatinib]
Procedure, shortened: as §1

pictilisib = compound: CS(=O)(=O)N1CCN(Cc2cc3nc(-c4cccc5[nH]ncc45)nc(N4CCOCC4)c3s2)CC1 [pictilisib]
Procedure, shortened: as §1

[4] = compound: CS(=O)(=O)c1ccc(-c2cnc(N)c(C(=O)Nc3ccccc3)n2)cc1
Procedure, shortened: as §1

crizotinib = compound: C[C@@H](Oc1cc(-c2cnn(C3CCNCC3)c2)cnc1N)c1c(Cl)ccc(F)c1Cl [crizotinib]
Procedure, shortened: as §1

[5] = compound: C[C@@H]1COCCN1C2=NC(=NC(=C2)C3(CC3)S(=O)(=O)C)C4=C5C=CNC5=CC=C4
Procedure, shortened: as §1

[6] = compound: C[C@H](C1=CC=C(C=C1)C(=O)NC2=C3C=CNC3=NC=C2)N
Procedure, shortened: as §1

gandotinib = compound: Cc1cc(Nc2cc(CN3CCOCC3)c3nc(C)c(Cc4ccc(Cl)cc4F)n3n2)n[nH]1 [gandotinib]
Procedure, shortened: as §1

[7] = compound: Cc1cc(SCc2sc(-c3ccc(C(F)(F)F)cc3)nc2C)ccc1OCC(=O)O
Procedure, shortened: as §1

doramapimod = compound: Cc1ccc(-n2nc(C(C)(C)C)cc2NC(=O)Nc2ccc(OCCN3CCOCC3)c3ccccc23)cc1 [doramapimod]
Procedure, shortened: as §1

ispinesib = compound: Cc1ccc(C(=O)N(CCCN)[C@@H](c2nc3cc(Cl)ccc3c(=O)n2Cc2ccccc2)C(C)C)cc1 [ispinesib]
Procedure, shortened: as §1

duvelisib = compound: C[C@H](Nc1ncnc2nc[nH]c12)c1cc2cccc(Cl)c2c(=O)n1-c1ccccc1 [duvelisib]
Procedure, shortened: as §1

tozasertib = compound: Cc1cc(Nc2cc(N3CCN(C)CC3)nc(Sc3ccc(NC(=O)C4CC4)cc3)n2)n[nH]1 [tozasertib]
Procedure, shortened: as §1

Row | Target | log2 fold change [1] | log2 fold change (filanesib) | log2 fold change (zotarolimus) | log2 fold change (idasanutlin) | log2 fold change (alisertib) | log2 fold change [2] | log2 fold change (gefitinib) | log2 fold change [3] | log2 fold change (lapatinib) | log2 fold change (pictilisib) | log2 fold change [4] | log2 fold change (crizotinib) | log2 fold change [5] | log2 fold change [6] | log2 fold change (gandotinib) | log2 fold change [7] | log2 fold change (doramapimod) | log2 fold change (ispinesib) | log2 fold change (duvelisib) | log2 fold change (tozasertib)
1 | CAD (UniProt P27708) | inactive: 0.019 | inactive: -0.054 | inactive: -0.014 | inactive: -0.03 | inactive: -0.058 | inactive: -0.011 | inactive: -0.044 | inactive: 0.047 | inactive: -0.031 | inactive: -0.04 | inactive: 0.014 | active: -0.271 | inactive: 0 | inactive: 0.033 | inactive: -0.013 | inactive: 0.053 | inactive: -0.028 | inactive: -0.106 |  | 
2 | C4A (UniProt P0C0L4) | inactive: 0.042 | inactive: 0.014 | active: -0.615 | inactive: 0.068 | inactive: -0.005 | inactive: 0.001 | inactive: -0.198 | inactive: 0.175 | inactive: -0.078 | inactive: -0.291 | inactive: -0.096 | inactive: 0.065 | inactive: 0.088 | inactive: 0.056 | inactive: -0.375 | inactive: 0.008 | inactive: -0.153 | inactive: -0.155 |  | 
3 | CARD11 (UniProt Q9BXL7) | inactive: 0.035 | inactive: 0.202 | inactive: -0.073 | inactive: 0.089 |  | inactive: 0.051 |  |  | inactive: 0.084 |  | inactive: 0.066 | inactive: -0.104 | inactive: 0.028 | inactive: 0.162 |  | inactive: 0.139 | inactive: 0.009 |  | inactive: 0.042 | 
4 | C11orf24 (UniProt Q96F05) | inactive: 0.116 | inactive: 0.183 |  | inactive: 0.374 |  |  |  |  |  |  | inactive: 0.036 | inactive: -0.017 | inactive: -0.048 |  |  |  | inactive: 0.069 | inactive: 0.025 |  | 
5 | C11orf74 (UniProt Q86VG3) | inactive: -0.04 | inactive: 0.149 |  |  | inactive: -0.042 |  | inactive: 0.024 | inactive: 0.101 |  | inactive: -0.082 | inactive: 0.031 | inactive: -0.051 | inactive: 0.002 |  | inactive: 0.079 |  | inactive: -0.068 |  |  | inactive: 0.022
6 | C16orf87 (UniProt Q6PH81) |  | inactive: 0.145 |  |  | inactive: 0.13 |  | inactive: -0.112 | inactive: 0.061 |  |  | inactive: 0.047 |  | inactive: 0.3 |  |  |  |  |  |  | 
7 | C8orf88 (UniProt P0DMB2) | inactive: -0.098 |  | inactive: -0.734 | inactive: 0.082 | inactive: -0.016 | inactive: -0.113 |  | inactive: 0.077 | inactive: -0.282 | inactive: -0.039 |  | inactive: -0.017 | inactive: -0.185 | inactive: 0.175 | inactive: 0.11 |  | inactive: -0.136 | inactive: 0.282 |  | 
8 | C6orf120 (UniProt Q7Z4R8) | inactive: 0.003 | inactive: -0.053 |  |  |  | inactive: -0.135 | inactive: -0.008 |  | inactive: -0.114 |  | inactive: 0.069 | inactive: -0.04 |  |  |  | inactive: 0.113 | inactive: 0.134 | inactive: -0.07 |  | 
9 | BTRC (UniProt Q9Y297) | inactive: -0.1 | inactive: -0.064 |  | inactive: -0.659 | inactive: 0.131 | inactive: -0.25 | inactive: 0.083 | inactive: -0.051 | inactive: -0.063 | inactive: -0.102 | inactive: 0.054 | inactive: -0.073 | inactive: 0.089 |  | inactive: -0.157 | inactive: 0.054 | inactive: 0.009 |  | inactive: 0.024 | inactive: 0.007
10 | CARD8 isoform 5 (UniProt Q9Y2G2) | inactive: -0.102 | inactive: 0.083 |  | inactive: 0.006 | inactive: -0.038 | inactive: 0.145 | inactive: -0.256 | inactive: -0.121 | inactive: -0.547 | inactive: -0.038 | inactive: -0.112 | inactive: 0.065 | inactive: 0.001 |  | inactive: -0.045 | inactive: -0.004 | inactive: -0.005 | inactive: 0.034 | inactive: 0.025 | inactive: 0.037
11 | CALCOCO1 (UniProt Q9P1Z2) | inactive: 0.004 |  | inactive: 0 |  | inactive: -0.055 | inactive: 0.027 | inactive: -0.225 | inactive: -0.017 | inactive: 0.064 | inactive: -0.101 |  | inactive: 0.036 | inactive: 0 | inactive: 0.019 | inactive: -0.083 | inactive: 0.003 | inactive: 0.152 | inactive: 0.042 | inactive: -0.002 | inactive: 0.035
12 | C1orf112 (UniProt Q9NSG2) |  | inactive: 0.065 |  | inactive: -0.049 |  | inactive: -0.143 |  |  | inactive: 0.021 | inactive: -0.1 | inactive: 0.087 |  |  |  | inactive: -0.131 | inactive: 0.015 |  |  | inactive: 0.103 | inactive: -0.048
13 | BTBD6 (UniProt Q96KE9) |  | inactive: -0.019 | inactive: 0.062 | inactive: 0.053 | inactive: -0.058 | inactive: 0.194 | inactive: 0.03 | inactive: -0.186 | inactive: -0.072 | inactive: 0.143 | inactive: 0.117 |  | inactive: 0.033 | inactive: -0.308 | inactive: 0.64 | inactive: -0.061 |  | inactive: 0.209 |  | 
14 | C1D (UniProt Q13901) | inactive: -0.171 | inactive: -0.041 |  | inactive: 0.12 | inactive: -0.138 | inactive: -0.101 | inactive: 0.043 | inactive: -0.027 | inactive: 0.006 | inactive: 0.012 | inactive: -0.073 | inactive: 0.06 | inactive: -0.107 |  | inactive: 0.01 |  | inactive: -0.089 | inactive: 0.007 |  | 
15 | C1orf159 isoform 4 (UniProt Q96HA4) |  | inactive: -0.025 | inactive: 0.217 |  |  |  |  |  |  | inactive: -0.008 | inactive: 0.177 |  |  | inactive: 0.147 | inactive: 0.069 |  |  |  |  | 
16 | CAB39L (UniProt Q9H9S4) | inactive: -0.063 | inactive: -0.07 |  | inactive: -0.052 |  | inactive: 0.07 |  |  | inactive: 0.057 | inactive: 0.029 | inactive: 0.13 | inactive: 0.036 | inactive: -0.01 |  | active: 0.448 | inactive: 0.053 | inactive: 0.024 | inactive: -0.031 |  | 
17 | CAP1 isoform 2 (UniProt Q01518) | inactive: 0.156 |  |  |  | inactive: -0.155 |  |  | inactive: -0.076 |  |  |  | inactive: -0.115 |  |  |  |  | inactive: -0.125 |  |  | 
18 | CARD19 isoform 2 (UniProt Q96LW7) | inactive: -0.026 |  | inactive: 0.003 | inactive: -0.037 | inactive: 0.063 |  |  | inactive: -0.077 |  | inactive: -0.067 |  | inactive: 0.019 | inactive: -0.034 | inactive: 0.07 | inactive: 0.129 | inactive: 0.064 | inactive: -0.098 | inactive: -0.107 | inactive: 0.07 | inactive: -0.007
19 | C19orf57 (UniProt Q0VDD7) | inactive: -0.06 |  | inactive: -0.098 | inactive: -0.005 |  |  |  |  |  | inactive: -0.089 |  | inactive: 0.015 |  | inactive: 0.182 | inactive: -0.049 | inactive: -0.105 | inactive: 0.001 | inactive: -0.036 | inactive: -0.037 | 
20 | CARD9 (UniProt Q9H257) | inactive: -0.062 |  |  | inactive: 0.169 |  |  |  |  |  |  |  | inactive: -0.023 |  |  |  |  | inactive: 0.135 | inactive: -0.398 |  | 
21 | C2orf76 (UniProt Q3KRA6) |  | inactive: -0.059 |  | inactive: -0.144 | inactive: 0.068 |  |  | inactive: -0.168 |  |  | inactive: 0.052 |  |  |  |  | inactive: 0.063 |  |  | inactive: 0.048 | inactive: 0.03

At a glance, some entries already given:
Row | Target | log2 fold change [1] | log2 fold change (filanesib) | log2 fold change (zotarolimus) | log2 fold change (idasanutlin) | log2 fold change (alisertib) | log2 fold change [2] | log2 fold change (gefitinib) | log2 fold change [3] | log2 fold change (lapatinib) | log2 fold change (pictilisib) | log2 fold change [4] | log2 fold change (crizotinib) | log2 fold change [5] | log2 fold change [6] | log2 fold change (gandotinib) | log2 fold change [7] | log2 fold change (doramapimod) | log2 fold change (ispinesib) | log2 fold change (duvelisib) | log2 fold change (tozasertib)
18 | CARD19 isoform 2 (UniProt Q96LW7) | inactive: -0.026 |  | inactive: 0.003 | inactive: -0.037 | inactive: 0.063 |  |  | inactive: -0.077 |  | inactive: -0.067 |  | inactive: 0.019 | inactive: -0.034 | inactive: 0.07 | inactive: 0.129 | inactive: 0.064 | inactive: -0.098 | inactive: -0.107 | inactive: 0.07 | inactive: -0.007
19 | C19orf57 (UniProt Q0VDD7) | inactive: -0.06 |  | inactive: -0.098 | inactive: -0.005 |  |  |  |  |  | inactive: -0.089 |  | inactive: 0.015 |  | inactive: 0.182 | inactive: -0.049 | inactive: -0.105 | inactive: 0.001 | inactive: -0.036 | inactive: -0.037 | 
